Measured values from paper PMC3843068.
Results are given in words; binding and its absence hold for the method and conditions named. In cells and extracts the contact can be indirect. Some entries that bind do so weakly or less than the wild type. For some assays here: Sequences can lack the tags named with a protein.

Chains of the proteins cited; added tags and fusions are not shown. Lines headed by an entry give the natural chain unless they say otherwise; changes in a name come on top.
UniProt Q8TAF3: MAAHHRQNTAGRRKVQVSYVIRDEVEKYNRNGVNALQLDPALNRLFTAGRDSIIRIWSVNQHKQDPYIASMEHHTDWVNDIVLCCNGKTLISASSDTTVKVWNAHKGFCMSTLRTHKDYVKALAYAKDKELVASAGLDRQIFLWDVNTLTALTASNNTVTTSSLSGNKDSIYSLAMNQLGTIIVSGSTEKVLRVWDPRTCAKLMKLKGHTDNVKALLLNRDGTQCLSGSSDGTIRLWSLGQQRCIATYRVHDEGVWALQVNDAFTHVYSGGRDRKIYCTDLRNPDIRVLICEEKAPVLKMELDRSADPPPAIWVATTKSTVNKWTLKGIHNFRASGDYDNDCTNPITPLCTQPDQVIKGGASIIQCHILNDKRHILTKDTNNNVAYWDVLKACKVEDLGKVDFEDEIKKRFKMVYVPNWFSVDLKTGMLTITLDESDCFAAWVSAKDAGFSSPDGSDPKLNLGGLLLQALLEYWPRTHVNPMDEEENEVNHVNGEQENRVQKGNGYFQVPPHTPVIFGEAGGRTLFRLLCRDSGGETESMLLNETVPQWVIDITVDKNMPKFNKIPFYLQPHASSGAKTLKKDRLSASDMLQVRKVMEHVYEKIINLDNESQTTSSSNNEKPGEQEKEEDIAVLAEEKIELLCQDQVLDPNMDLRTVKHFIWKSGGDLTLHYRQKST
UniProt O75317: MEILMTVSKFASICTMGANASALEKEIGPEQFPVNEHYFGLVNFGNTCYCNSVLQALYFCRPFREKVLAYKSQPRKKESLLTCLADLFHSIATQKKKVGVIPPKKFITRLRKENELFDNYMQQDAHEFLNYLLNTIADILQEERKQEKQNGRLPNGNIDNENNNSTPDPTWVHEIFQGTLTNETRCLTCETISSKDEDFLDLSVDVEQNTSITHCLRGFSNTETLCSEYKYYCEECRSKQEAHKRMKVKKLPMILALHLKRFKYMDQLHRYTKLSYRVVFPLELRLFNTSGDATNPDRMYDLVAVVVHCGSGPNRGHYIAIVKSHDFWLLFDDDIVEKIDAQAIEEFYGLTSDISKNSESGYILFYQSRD

Tests used:
[1] = target: SFB-tagged WDR48 L580F mutant (UniProt Q8TAF3); assay: co-IP; 293T co-transfected with SFB-WDR48 (WT or L580F) and HA-PHLPP1 or Myc-USP12; precipitation with streptavidin beads, blot with anti-HA or anti-myc antibody
[2] = target: SFB-tagged WDR48 full-length (UniProt Q8TAF3); assay: as above
[3] = target: T1, SFB-triple-tagged PHLPP1 full-length (UniProt O60346); assay: co-IP; 293T co-transfected with SFB-tagged PHLPP1 constructs and Myc-tagged WDR48; immunoprecipitation and immunoblotting with the indicated antibodies
T1 sequence: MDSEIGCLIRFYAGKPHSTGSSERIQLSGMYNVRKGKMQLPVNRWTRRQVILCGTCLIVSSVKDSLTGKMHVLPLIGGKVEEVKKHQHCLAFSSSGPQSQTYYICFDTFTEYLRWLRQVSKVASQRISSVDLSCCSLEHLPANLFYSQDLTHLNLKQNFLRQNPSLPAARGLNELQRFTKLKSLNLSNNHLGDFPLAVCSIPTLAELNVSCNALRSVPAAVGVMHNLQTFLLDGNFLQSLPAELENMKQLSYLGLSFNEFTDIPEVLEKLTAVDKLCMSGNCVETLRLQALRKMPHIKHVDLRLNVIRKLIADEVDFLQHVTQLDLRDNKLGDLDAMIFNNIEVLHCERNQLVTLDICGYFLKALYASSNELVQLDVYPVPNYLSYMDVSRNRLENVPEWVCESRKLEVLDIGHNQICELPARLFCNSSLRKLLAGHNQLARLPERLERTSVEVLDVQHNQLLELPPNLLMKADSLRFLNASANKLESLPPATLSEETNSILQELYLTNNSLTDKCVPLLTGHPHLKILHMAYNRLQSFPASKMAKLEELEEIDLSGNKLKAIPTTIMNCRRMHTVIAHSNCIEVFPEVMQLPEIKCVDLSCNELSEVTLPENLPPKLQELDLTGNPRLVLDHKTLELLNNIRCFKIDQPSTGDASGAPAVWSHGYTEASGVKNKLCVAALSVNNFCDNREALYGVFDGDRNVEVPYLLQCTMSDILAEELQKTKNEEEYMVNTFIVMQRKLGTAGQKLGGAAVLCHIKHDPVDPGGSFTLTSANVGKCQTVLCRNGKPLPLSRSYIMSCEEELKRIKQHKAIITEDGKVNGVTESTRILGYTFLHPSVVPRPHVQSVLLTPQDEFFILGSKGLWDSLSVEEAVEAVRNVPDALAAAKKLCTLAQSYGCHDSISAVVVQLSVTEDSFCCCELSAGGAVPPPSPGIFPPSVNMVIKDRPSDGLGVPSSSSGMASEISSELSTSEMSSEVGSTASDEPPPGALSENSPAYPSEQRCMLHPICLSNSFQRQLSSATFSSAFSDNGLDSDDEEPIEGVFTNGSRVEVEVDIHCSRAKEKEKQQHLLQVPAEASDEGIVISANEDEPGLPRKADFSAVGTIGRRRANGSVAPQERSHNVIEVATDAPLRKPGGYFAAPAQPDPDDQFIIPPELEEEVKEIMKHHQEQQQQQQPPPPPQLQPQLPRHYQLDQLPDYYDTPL

[4] = target: T2, GST-PHLPP1 fusion protein (UniProt O60346); assay: pull-down; bacterially expressed GST-PHLPP1 or control GST on glutathione-Sepharose beads, incubated with lysate of 293T cells expressing SFB-WDR48, 1 h at 4 °C; blot with anti-FLAG antibody; only the target purified
T2 sequence: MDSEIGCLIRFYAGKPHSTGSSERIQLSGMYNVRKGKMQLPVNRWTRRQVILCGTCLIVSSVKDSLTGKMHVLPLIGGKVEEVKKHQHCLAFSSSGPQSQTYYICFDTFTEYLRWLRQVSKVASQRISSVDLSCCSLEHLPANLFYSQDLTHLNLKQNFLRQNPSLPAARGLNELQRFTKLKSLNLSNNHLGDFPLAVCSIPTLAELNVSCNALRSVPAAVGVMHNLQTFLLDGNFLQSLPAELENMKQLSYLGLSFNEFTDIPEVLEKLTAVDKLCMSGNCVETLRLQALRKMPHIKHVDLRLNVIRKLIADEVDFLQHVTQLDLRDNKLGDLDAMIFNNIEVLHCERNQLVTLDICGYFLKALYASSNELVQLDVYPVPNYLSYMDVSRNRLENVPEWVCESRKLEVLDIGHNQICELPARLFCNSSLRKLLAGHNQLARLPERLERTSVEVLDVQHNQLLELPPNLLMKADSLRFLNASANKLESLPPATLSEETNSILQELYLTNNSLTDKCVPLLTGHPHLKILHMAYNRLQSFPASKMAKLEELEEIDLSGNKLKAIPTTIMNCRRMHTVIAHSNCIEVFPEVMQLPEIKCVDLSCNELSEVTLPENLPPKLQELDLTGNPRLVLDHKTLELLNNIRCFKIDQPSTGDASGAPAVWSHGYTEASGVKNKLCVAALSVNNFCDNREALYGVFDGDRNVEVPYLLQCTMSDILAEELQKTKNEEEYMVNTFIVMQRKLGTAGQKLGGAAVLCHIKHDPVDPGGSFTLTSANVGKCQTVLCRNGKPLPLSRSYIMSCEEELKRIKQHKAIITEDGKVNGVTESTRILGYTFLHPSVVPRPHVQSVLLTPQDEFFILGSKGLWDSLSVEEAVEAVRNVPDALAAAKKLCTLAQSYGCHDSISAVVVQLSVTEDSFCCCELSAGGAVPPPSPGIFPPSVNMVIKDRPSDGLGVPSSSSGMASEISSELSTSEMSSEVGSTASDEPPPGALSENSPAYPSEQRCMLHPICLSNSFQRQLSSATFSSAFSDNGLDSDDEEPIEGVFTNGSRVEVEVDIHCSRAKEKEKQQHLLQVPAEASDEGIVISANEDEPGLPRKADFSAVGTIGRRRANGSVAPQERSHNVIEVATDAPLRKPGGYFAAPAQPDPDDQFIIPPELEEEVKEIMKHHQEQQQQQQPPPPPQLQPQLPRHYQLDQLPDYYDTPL

[5] = target: FLAG-tagged USP12 (SFB-triple-tagged, full-length) (UniProt O75317); assay: co-IP; 293T transfected with FLAG-tagged plasmids; IP with FLAG antibody, blot of endogenous PHLPP1 with PHLPP1 antibody; NETN buffer
[6] = target: SFB-tagged WDR48 full-length (UniProt Q8TAF3); assay: as above
[7] = target: endogenous PHLPP1 (human (endogenous in 293T)) (UniProt O60346); assay: co-IP; endogenous proteins; IP with PHLPP1 antibody or control IgG, blots with WDR48 and USP12 antibodies; NETN lysis, 1 h at 4 °C; cell line not stated
[8] = target: FLAG-tagged USP12 (SFB-triple-tagged, full-length) (UniProt O75317); assay: co-IP; 293T co-transfected with HA-PHLPP1 and FLAG(SFB)-tagged proteins; IP with anti-FLAG antibody, blot with HA antibody (Fig. 1D; Fig. 2D with the indicated antibodies); NETN buffer
[9] = target: SFB-tagged WDR48 full-length (UniProt Q8TAF3); assay: as above

Myc-tagged USP12 full-length (from UniProt O75317 1-370) (enzyme)
binding [1]: binds | binding [2]: binds

Myc-tagged WDR48 full-length (from UniProt Q8TAF3 1-677)
binding [3]: binds

SFB-tagged WDR48 full-length (from UniProt Q8TAF3 1-677)
binding [4]: binds

endogenous PHLPP1 (from UniProt O60346 1-1717)
binding [5]: binds | binding [6]: binds

endogenous USP12 (from UniProt O75317 1-370) (enzyme)
binding [7]: binds

endogenous WDR48 (from UniProt Q8TAF3 1-677)
binding [7]: binds

B1: HA-tagged PHLPP1 (protein, UniProt O60346-2 1-1205)
chain: MDSEIGCLIRFYAGKPHSTGSSERIQLSGMYNVRKGKMQLPVNRWTRRQVILCGTCLIVSSVKDSLTGKMHVLPLIGGKVEEVKKHQHCLAFSSSGPQSQTYYICFDTFTEYLRWLRQVSKVASQRISSVDLSCCSLEHLPANLFYSQDLTHLNLKQNFLRQNPSLPAARGLNELQRFTKLKSLNLSNNHLGDFPLAVCSIPTLAELNVSCNALRSVPAAVGVMHNLQTFLLDGNFLQSLPAELENMKQLSYLGLSFNEFTDIPEVLEKLTAVDKLCMSGNCVETLRLQALRKMPHIKHVDLRLNVIRKLIADEVDFLQHVTQLDLRDNKLGDLDAMIFNNIEVLHCERNQLVTLDICGYFLKALYASSNELVQLDVYPVPNYLSYMDVSRNRLENVPEWVCESRKLEVLDIGHNQICELPARLFCNSSLRKLLAGHNQLARLPERLERTSVEVLDVQHNQLLELPPNLLMKADSLRFLNASANKLESLPPATLSEETNSILQELYLTNNSLTDKCVPLLTGHPHLKILHMAYNRLQSFPASKMAKLEELEEIDLSGNKLKAIPTTIMNCRRMHTVIAHSNCIEVFPEVMQLPEIKCVDLSCNELSEVTLPENLPPKLQELDLTGNPRLVLDHKTLELLNNIRCFKIDQPSTGDASGAPAVWSHGYTEASGVKNKLCVAALSVNNFCDNREALYGVFDGDRNVEVPYLLQCTMSDILAEELQKTKNEEEYMVNTFIVMQRKLGTAGQKLGGAAVLCHIKHDPVDPGGSFTLTSANVGKCQTVLCRNGKPLPLSRSYIMSCEEELKRIKQHKAIITEDGKVNGVTESTRILGYTFLHPSVVPRPHVQSVLLTPQDEFFILGSKGLWDSLSVEEAVEAVRNVPDALAAAKKLCTLAQSYGCHDSISAVVVQLSVTEDSFCCCELSAGGAVPPPSPGIFPPSVNMVIKDRPSDGLGVPSSSSGMASEISSELSTSEMSSEVGSTASDEPPPGALSENSPAYPSEQRCMLHPICLSNSFQRQLSSATFSSAFSDNGLDSDDEEPIEGVFTNGSRVEVEVDIHCSRAKEKEKQQHLLQVPAEASDEGIVISANEDEPGLPRKADFSAVGTIGRRRANGSVAPQERSHNVIEVATDAPLRKPGGYFAAPAQPDPDDQFIIPPELEEEVKEIMKHHQEQQQQQQPPPPPQLQPQLPRHYQLDQLPDYYDTPL
binding [2]: binds | binding [8]: binds | binding [9]: binds
